Article PMC10541202
No constants are given. Whether binding was seen depends on the method and setting. In cells and extracts the contact can be indirect. Some entries that bind do so weakly or less than the wild type.

Sequences of proteins named here, by UniProt entry; tags and fusion partners are left off.
UniProt Q5QD51: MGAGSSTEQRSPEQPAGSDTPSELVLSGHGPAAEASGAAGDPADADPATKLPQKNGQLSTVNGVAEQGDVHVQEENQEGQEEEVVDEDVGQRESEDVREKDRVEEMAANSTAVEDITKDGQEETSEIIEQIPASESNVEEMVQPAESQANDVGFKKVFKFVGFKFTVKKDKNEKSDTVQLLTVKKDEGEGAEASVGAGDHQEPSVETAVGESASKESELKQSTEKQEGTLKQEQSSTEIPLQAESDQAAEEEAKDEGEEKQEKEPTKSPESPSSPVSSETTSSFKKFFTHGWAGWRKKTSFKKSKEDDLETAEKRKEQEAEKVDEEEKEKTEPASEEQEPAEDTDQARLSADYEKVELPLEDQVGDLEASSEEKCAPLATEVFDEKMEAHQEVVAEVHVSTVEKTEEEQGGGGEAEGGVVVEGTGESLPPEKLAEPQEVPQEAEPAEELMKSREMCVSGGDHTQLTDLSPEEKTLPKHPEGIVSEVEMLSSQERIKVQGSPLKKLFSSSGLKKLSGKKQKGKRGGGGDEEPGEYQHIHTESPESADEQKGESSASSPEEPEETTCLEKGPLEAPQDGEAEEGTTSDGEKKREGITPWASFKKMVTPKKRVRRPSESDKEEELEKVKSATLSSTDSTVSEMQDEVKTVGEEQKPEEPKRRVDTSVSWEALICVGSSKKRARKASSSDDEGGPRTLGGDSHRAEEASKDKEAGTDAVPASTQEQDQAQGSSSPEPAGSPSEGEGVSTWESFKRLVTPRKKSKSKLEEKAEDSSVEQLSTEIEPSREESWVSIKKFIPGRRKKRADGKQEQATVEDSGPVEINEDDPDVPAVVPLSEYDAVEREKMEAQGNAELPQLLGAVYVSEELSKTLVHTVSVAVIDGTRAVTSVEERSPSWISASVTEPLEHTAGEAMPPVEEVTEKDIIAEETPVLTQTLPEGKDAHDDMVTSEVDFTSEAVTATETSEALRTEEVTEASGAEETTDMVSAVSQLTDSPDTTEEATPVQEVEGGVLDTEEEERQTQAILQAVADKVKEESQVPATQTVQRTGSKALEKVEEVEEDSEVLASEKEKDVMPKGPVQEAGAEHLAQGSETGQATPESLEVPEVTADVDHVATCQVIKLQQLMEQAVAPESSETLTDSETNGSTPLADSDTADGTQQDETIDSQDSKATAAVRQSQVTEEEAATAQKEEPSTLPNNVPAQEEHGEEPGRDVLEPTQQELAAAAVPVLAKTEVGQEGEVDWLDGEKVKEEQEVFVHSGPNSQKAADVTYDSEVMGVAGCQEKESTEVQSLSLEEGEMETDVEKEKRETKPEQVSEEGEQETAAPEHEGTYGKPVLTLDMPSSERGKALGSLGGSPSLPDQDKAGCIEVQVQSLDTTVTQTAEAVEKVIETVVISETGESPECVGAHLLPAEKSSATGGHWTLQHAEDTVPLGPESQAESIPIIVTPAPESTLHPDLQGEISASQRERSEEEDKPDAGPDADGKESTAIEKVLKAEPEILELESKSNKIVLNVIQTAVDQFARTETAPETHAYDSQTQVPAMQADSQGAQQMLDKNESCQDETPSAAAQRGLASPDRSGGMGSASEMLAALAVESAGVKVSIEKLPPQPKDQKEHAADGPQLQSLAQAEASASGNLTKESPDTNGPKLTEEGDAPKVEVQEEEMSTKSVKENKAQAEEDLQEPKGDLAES
UniProt P12367: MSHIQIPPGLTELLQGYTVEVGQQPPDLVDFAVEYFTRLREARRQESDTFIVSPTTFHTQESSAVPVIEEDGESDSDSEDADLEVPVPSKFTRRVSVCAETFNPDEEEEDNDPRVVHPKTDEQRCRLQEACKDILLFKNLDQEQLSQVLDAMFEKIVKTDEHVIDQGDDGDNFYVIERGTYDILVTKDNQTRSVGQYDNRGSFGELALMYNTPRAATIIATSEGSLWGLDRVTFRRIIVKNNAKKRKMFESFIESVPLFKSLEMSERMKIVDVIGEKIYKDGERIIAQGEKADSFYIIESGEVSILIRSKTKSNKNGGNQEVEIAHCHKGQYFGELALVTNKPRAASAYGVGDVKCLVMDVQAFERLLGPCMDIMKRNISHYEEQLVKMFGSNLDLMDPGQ

Target: FLAG-tagged gravin-α (A kinase-anchoring protein 12, AKAP12) (rat) (UniProt Q5QD51)
Assay: co-IP; FLAG-tagged gravin-α in 3T3-L1 adipocytes, without or with the HDAC11 inhibitor FT895; interactions unchanged by FT895

“PKA RII-α regulatory subunit (from UniProt P12367 1-401)” was tested, and the binding was “binds”.
